Reference: US20060073141A1
No constants are given. Whether binding was seen depends on the method and setting. Some results given as binding are weak or reduced against the parent protein; the word gives no strength.

T1: mouse VEGF (mouse) (UniProt Q00731)
T1 sequence (looked up): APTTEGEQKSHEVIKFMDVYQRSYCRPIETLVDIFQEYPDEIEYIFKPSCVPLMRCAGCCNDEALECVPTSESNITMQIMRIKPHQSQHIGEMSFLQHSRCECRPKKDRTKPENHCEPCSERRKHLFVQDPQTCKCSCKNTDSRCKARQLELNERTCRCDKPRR


Molecular target: T1, mouse VEGF (mouse)
Assay: ELISA, cross-reactivity with mouse VEGF

| binding | Binder |
| --- | --- |
| binds | TAR15-5 (protein) VH: EVQLLESGGGLVQPGGSLRLSCAASGFTFRLYDMVWVRQAPGKGLEWVSYISSGGSGTYYADSVKGRFTISRDNSKNTLYLQMNSLRAEDTAVYYCAKAGGRASFDYWGQGTLVTVSS |
| binds | TAR15-26 (protein) VH: EVQLLESGGGLVQPGGSLRLSCAASGFTFGAYPMMWVRQAPGKGLEWVSEISPSGSYTYYADSVKGRFTISRDNSKNTLYLQMNSLRAEDTAVYYCAKDPRKFDYWGQGTLVTVSS |
| binds | TAR15-8 (protein) VH: EVQLLESGGGLVQPGGSLRLSCAASGFTFQWYPMWWVRQAPGKGLEWVSLIEGQGDRTYYADSVKGRFTISRDNSKNTLYLQMNSLRAEDTAVYYCAKAGDRTAGSRGNSFDYWGQGTLVTVSS |
